Assay results from patent US20260116967A1 (CSPC MEGALITH BIOPHARMACEUTICAL, published 2026).
These are yes or no findings as the source states them, for the method shown. Some binding calls cover weakened binding; strength is not graded here.

B1: Hab21F10C10.12 (antibody, V domains shown)
VH: QVQLVQSGAEVKKPGASVKVSCKASGYTFINNFIEWVRQAPGQGLEWMGVINPGSGDANYAQKFQGRVTMTRDTSISTAYMELSRLRSDDTAVYYCASHWLAYWGQGTTVTVSS
VL: EIVMTQSPPTLSLSPGERVTLSCRSSQSLLSSGNQKNYLSWYQQKPGQAPRLLIYGASTRETGIPARFSGSGSGTDFTLTISSLQPEDFAVYYCQNGHFYPYTFGGGTKLEIK
notes: Humanized antibody; also called Hab21F10C10-VH.1d + Hab21F10C10-VL.1c
B2: Hab43F7C9.12 (antibody, V domains shown)
VH: QVQLQESGPGLVKPSETLSLTCTVSGYSISSDYAWNWIRQPPGKGLEWIGYIRYNGNTNYNPSLKSRVTISVDTSKNQFSLKLSSVTAADTAVYYCAIIYYDYDGFVYWGQGTTVTVSS
VL: DIQMTQSPSSLSASVGDRVTITCRASQNVYENLHWYQQKPGKAPKLLIKFASDSISGVPSRFSGSGSGTDFTLTISSLQPEDFATYYCLQLYSTPYTFGGGTKLEIK
notes: Humanized antibody; also called Hab43F7C9-VH.1d + Hab43F7C9-VL.1c; 43H7C9.12
B3: Hab1B10E8.6 (antibody, V domains shown)
VH: QVQLVQSGAEVKKPGASVKVSCKASGYSFPSYWMHWVRQAPGQGLEWIGEINPSNGLTNYNEQFRNRVTMTVDTSTSTVYMELSSLRSEDTAVYYCARHHGSTYYALDSWGQGTLVTVSS
VL: DIVMTQSPDSLAVSLGERATINCKSSQSLLNSINQKNFLAWYQQKPGQPPKLLVYFASTRESGVPDRFSGSGSGTDFTLTISSLQAEDVAVYFCQQHYSTPPTFGGGTKLEIK
notes: Humanized antibody; also called Hab1B10E8-VH.1b + Hab1B10E8-VL.1b

Target: recombinant cynomolgus monkey (Cyno) PVRIG protein (cynomolgus monkey)
Assay: ELISA, Cyno-PVRIG protein coated

binding, binds:
B1
B2
B3
